# In all, about 33,000 sequences were measured (“E-score (-0.5 to 0.5)”: median about -0.0014, highest 2% from about 0.25 on). This is one part of the list.
# Target: T1, Cad1 (UniProt P24813)
# T1 sequence: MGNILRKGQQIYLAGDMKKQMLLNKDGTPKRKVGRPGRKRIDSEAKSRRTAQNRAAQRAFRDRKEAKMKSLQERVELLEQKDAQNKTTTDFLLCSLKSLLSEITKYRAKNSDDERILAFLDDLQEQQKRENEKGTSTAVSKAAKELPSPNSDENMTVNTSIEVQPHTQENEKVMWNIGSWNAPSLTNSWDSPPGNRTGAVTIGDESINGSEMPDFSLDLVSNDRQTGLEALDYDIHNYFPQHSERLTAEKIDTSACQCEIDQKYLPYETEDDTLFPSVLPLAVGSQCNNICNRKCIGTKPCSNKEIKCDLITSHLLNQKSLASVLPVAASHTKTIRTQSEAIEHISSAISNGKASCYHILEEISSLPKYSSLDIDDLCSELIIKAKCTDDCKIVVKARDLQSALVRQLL
# Assay: PBM E-score (8-mer binding enrichment) (E-score (-0.5 to 0.5)); higher = stronger / more preferred TF binding
# Settings: protein concentration: 100 nM; construct: GST-full length
# Experimental: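 Universal 'all 10-mer' protein binding microarrays (Agilent AMADID 015681) probed with GST-tagged S. cerevisiae TFs (full-length or DBD) made by in vitro transcription/translation (PURExpress), about 100-200 nM. Bound TF was detected with fluorescent anti-GST. Each ungapped 8-mer (which stands for itself and its reverse complement) is scored by the PBM enrichment score (E-score), a modified Wilcoxon-Mann-Whitney statistic from -0.5 to +0.5, computed with the Universal PBM Analysis Suite. Scale: above 0.35 generally sequence-specific binding.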
row,Sequence,PBM E-score
1,GTGCACAC,-0.0677
2,TAGCCCAA,-0.0331
3,ACACTCTG,-0.0387
4,ACTCTGCG,0.0388
5,CCGCCACC,-0.144
6,ATAGCGCG,0.175
7,AGGCTACG,-0.271
8,AGTTTTAA,0.0556
9,GTAAAAAC,0.161
10,GCTCCCTA,-0.331
11,CCTAAACG,-0.14
12,GCTCGGAA,-0.1
13,ACCGAACG,0.122
14,GCGCGAAA,0.308
15,AGCTGTGG,-0.117
16,AATGTAGG,-0.241
17,CCCTAGAC,-0.157
18,AGTCCCTG,-0.212
19,GACTTCGC,0.0624
20,CTGTTTGA,-0.00915
21,CGCTGTTC,0.00447
22,TGGCTTAA,0.156
23,AAGGTTCA,-0.0378
24,TCGCTAGA,0.0334
25,TAACTCTA,-0.0689

row,Sequence,PBM E-score
1,GCGCTAGA,0.162
2,CAGAACAC,-0.0563
3,TTGGCCAA,-0.204
4,AGGCCGAC,-0.0602
5,AAGAGTAT,-0.159
6,AGCACAGC,0.125
7,CTGTCCGA,0.189
8,CACAAGAC,-0.105
9,AACAGGCT,-0.104
10,CATATCCA,-0.105
11,CAAATCCC,-0.171
12,AAGCCTGG,-0.114
13,CCTGTGGC,-0.193
14,ATGGATCA,-0.0508
15,ACACCAGG,-0.166
16,AAATCAAC,0.00702
17,CTCGCTCC,-0.0617
18,AGGTATTC,0.0115
19,ACGCGGGC,0.0965
20,AATACGCA,0.0688
21,AGCGAGCA,0.0824
22,GTCGCCTA,-0.11
23,CGAGCCAA,0.00822
24,CCACGGAC,-0.144
25,AGCGGGTG,-0.0881

# Single entries from above:
# AACAGGCT – PBM E-score: -0.104
# CCACGGAC – PBM E-score: -0.144
# TAACTCTA – PBM E-score: -0.0689
# GACTTCGC – PBM E-score: 0.0624
# GCTCCCTA – PBM E-score: -0.331

# The listing continues:

row,Sequence,PBM E-score
1,GATTACAC,0.156
2,GCAAGGGA,-0.135
3,ATATTATC,0.096
4,ACCTTCAC,-0.0345
5,CTAGGCCC,-0.265
6,AGTCGCTA,-0.0236
7,CATAGCCA,0.0256
8,GACCGTAC,-0.287
9,CACTGAAA,0.0823
10,ATCCTATA,0.065
11,ATGTCCAC,0.0105
12,GTGGGACA,-0.0497
13,CAAGTCCC,-0.291
14,ACGTCACC,0.0158
15,CGATAATC,-0.016
16,AGTATATC,0.0175
17,CGGTTTTC,0.139
18,ATCGACAT,0.212
19,ATGTAGGA,-0.151
20,CGTAACTA,-0.001
21,AAAAGAGC,-0.0189
22,CGTTCGGC,-0.00541
23,CTACCATC,-0.119
24,AGAGCTTA,0.0343
25,ATCTCATA,0.0481

row,Sequence,PBM E-score
1,CCCGGAAC,-0.0598
2,AACTGTAA,0.243
3,GAGGCCGC,-0.154
4,GCTGCACC,-0.124
5,CGCATTAC,0.0529
6,ACCTCATC,-0.156
7,CGGGCTTA,0.0305
8,CGGACCCG,-0.117
9,CCCGTGTA,-0.175
10,CAGAGCGG,-0.151
11,AGTTGTTG,-0.106
12,CCTGCCTA,-0.0584
13,ATATACTA,0.259
14,AAGAAACG,0.0597
15,TCAGTCGA,0.151
16,CCTGAGAA,-0.0053
17,GACATGTC,-0.0393
18,GTTATGCA,0.0393
19,AAAAAACA,0.156
20,ACCCGGAC,-0.179
21,ATTATCTA,0.239
22,GGATCCGA,-0.00022
23,GGCTACCC,-0.276
24,ATCATACC,-0.022
25,GAAGGCGA,-0.0753

row,Sequence,PBM E-score
1,CTGCAACA,0.0811
2,CCTGTGTA,0.0937
3,ATCTATCA,0.144
4,AAGATATA,0.0978
5,AGAGATAC,0.165
6,AGGGTGTC,-0.0231
7,CAGGAGAG,-0.257
8,CCAAGAGG,-0.252
9,AGAGCAAA,-0.141
10,GTCTGCTA,0.218
11,CCCCCTCG,-0.377
12,CAAGACCA,-0.0255
13,ATAGAATA,0.191
14,AAGGAGGC,-0.3
15,ACTTCTGC,0.0398
16,CATGACGC,-0.0248
17,ATTATGGG,-0.0198
18,CGTCGGCC,-0.0542
19,GAGCCTTA,-0.0105
20,GACTTGGC,-0.305
21,ATGACAAG,0.127
22,GTCATTCA,0.0207
23,GCAAAACA,0.00562
24,GTACGTAC,0.0441
25,CGCGGGGA,0.027

row,Sequence,PBM E-score
1,ACCCGTAA,-0.103
2,CCCTCGAC,-0.0126
3,AATACTAT,-0.0768
4,GAGACCTC,-0.179
5,CTCGGCGC,0.069
6,CACGGTGA,0.155
7,CGGCCATA,-0.0142
8,ACGCAATG,-0.0109
9,AGGTCTTA,-0.0298
10,ATGTAAAG,0.084
11,CAGCATAG,0.126
12,CAGAGTCG,-0.0666
13,CGCCATAG,-0.00884
14,ATAGCACC,-0.0406
15,CTCAGAAA,0.0689
16,ACTTGTTG,-0.216
17,CTTACCCC,-0.253
18,ACCAATAT,0.306
19,ATGTACCG,-0.0631
20,AAGGAGTG,-0.0916
21,CAGACTAA,-0.0613
22,CGGCTCTA,0.0485
23,AGTACGCA,-0.129
24,AAGAGACG,0.127
25,CGCCAAGC,-0.256

# An excerpt of these results, as tab-separated lines:
row	Sequence	PBM E-score
16	ACTTGTTG	-0.216
17	CTTACCCC	-0.253
18	ACCAATAT	0.306

# Remaining list, next part.

row,Sequence,PBM E-score
1,AACAGCAA,0.106
2,ACCTCGCA,-0.0868
3,AACCGTGA,0.0747
4,ACACACGC,0.0891
5,CACGGTAA,-0.0753
6,CATTACGG,-0.144
7,GGTCTAGA,-0.081
8,GCGCATAC,0.0238
9,CCTTTTCG,-0.12
10,ACGTCTAA,-0.0112
11,ATCTAAAG,0.0132
12,CTTAGGCC,0.0557
13,AGTTGCCG,-0.0113
14,CCGTTCAG,0.00401
15,CTCCCCAA,-0.148
16,AATTATTA,0.249
17,CTCCTCAA,-0.199
18,CGCTAGCC,-0.207
19,GTTCCCAA,0.0533
20,CCGATATA,-0.00547
21,GCGCAACC,0.0308
22,CGCAACAC,0.131

# Source: the supplement of paper PMC3334620
